doi:10.1101/2023.07.20.548338
Results are given in words; binding and its absence hold for the method and conditions named. Binding seen in cells or lysates may run through a third protein. Some binding calls cover weakened binding; strength is not graded here. Sequences can lack the tags named with a protein.

By UniProt entry, the sequences of proteins in these tests, tags left out. Where a name states a change or a piece, a line headed by the entry shows the natural chain unless it says otherwise. Chains listed by the source or under a name are the forms on record and can include a tag or linker. Residues count along the entry.
Myc-tagged KGA, HEK293T (O94925, residues 55-669): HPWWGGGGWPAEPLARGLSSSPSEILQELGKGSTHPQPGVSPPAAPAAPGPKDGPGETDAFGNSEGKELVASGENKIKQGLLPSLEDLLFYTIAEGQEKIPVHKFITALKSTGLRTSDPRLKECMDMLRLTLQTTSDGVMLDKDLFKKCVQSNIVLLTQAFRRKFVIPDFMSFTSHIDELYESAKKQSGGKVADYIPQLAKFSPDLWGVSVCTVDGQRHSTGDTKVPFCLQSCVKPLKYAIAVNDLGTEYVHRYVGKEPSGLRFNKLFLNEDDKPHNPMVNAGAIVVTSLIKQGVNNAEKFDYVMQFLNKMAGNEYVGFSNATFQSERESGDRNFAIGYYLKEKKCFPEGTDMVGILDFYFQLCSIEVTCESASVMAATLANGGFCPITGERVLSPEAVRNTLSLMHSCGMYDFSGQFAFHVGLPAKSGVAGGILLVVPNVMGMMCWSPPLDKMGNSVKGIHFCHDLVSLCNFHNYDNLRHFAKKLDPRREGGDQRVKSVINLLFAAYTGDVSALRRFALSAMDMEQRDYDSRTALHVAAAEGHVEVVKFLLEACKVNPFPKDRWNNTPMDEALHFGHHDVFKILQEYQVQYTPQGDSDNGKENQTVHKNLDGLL
Myc-tagged GAC, HEK293T (O94925-3, form named): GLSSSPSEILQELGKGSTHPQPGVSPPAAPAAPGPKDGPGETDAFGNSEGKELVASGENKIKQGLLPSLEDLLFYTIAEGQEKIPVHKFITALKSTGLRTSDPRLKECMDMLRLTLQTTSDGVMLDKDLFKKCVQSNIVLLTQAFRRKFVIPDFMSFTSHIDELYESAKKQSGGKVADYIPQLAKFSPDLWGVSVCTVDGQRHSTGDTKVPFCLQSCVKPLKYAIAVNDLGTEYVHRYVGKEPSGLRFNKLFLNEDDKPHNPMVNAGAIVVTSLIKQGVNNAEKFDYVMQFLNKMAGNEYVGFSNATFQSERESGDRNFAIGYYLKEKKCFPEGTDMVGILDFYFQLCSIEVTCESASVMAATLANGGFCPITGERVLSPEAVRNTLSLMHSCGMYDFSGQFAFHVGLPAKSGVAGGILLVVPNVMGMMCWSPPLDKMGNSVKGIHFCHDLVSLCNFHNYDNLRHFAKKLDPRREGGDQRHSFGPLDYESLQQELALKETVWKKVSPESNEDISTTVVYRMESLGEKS
UniProt D3Z7P3, residues 55-674: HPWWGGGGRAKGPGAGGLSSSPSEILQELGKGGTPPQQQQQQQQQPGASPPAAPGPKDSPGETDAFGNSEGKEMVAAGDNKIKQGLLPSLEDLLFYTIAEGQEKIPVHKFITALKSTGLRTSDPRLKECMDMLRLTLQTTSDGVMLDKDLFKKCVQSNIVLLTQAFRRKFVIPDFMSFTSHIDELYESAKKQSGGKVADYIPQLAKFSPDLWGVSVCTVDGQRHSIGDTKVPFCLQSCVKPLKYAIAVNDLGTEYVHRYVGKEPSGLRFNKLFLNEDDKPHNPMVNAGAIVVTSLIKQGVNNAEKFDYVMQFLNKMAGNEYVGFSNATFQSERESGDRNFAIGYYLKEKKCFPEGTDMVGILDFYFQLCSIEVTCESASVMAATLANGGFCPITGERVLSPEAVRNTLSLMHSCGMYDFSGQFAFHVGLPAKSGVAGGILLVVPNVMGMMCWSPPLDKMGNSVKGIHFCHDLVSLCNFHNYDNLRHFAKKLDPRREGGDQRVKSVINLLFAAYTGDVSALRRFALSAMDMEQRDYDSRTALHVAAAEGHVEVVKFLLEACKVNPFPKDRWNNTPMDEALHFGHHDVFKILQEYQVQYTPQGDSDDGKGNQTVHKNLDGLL

Assays:
[1] = target: T1, FLAG-tagged PDZD8 (full length), HEK293T (not stated (T527 is the human residue number)) (UniProt Q8NEN9); experiment: co-IP
T1 sequence: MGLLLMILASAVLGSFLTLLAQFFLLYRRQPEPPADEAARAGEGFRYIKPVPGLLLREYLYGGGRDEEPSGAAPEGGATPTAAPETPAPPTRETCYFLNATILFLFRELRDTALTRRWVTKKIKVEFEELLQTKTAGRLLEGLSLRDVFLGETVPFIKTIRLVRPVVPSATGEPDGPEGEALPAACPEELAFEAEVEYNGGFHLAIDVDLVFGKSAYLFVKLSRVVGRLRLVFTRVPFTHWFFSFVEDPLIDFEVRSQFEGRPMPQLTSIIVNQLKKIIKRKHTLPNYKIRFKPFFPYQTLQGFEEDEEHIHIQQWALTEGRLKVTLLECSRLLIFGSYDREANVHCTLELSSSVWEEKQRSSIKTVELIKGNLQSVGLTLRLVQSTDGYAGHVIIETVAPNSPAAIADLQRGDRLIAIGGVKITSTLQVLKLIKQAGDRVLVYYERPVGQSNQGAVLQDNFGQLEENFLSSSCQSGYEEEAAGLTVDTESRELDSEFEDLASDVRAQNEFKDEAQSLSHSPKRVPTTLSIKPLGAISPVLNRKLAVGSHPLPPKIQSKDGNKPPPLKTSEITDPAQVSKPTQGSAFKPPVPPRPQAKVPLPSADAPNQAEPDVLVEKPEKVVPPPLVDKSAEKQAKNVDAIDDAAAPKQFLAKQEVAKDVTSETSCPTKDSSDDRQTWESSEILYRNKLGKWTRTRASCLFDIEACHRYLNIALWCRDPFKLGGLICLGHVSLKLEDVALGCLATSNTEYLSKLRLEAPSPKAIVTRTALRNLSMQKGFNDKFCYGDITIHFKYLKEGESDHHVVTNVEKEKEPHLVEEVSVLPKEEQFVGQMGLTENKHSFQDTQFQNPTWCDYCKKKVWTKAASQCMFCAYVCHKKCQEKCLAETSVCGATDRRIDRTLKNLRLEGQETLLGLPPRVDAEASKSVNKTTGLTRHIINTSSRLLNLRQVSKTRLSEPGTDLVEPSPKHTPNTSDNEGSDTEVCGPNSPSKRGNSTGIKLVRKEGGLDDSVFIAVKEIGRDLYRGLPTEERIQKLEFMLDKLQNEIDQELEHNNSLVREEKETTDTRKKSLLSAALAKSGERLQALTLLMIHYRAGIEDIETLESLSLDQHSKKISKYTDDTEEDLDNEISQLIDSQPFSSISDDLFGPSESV

[2] = target: T2, FLAG-tagged PDZD8-FL, stably expressed in MEFs (not stated (T527 is the human residue number)) (UniProt Q8NEN9); experiment: co-IP
T2 sequence: T1 sequence

| Substance | binding [1] | binding [2] |
| --- | --- | --- |
| Myc-tagged GAC, HEK293T (from UniProt O94925-3 71-598) (enzyme) | binds |  |
| glutaminase 1 (GLS1; both KGA and GAC), endogenous in MEFs (from UniProt D3Z7P3 55-674) |  | binds |
| Myc-tagged KGA, HEK293T (from UniProt O94925 55-669) (enzyme) | binds |  |
